Source: patent publication US20090148436A1
No constants are given. Whether binding was seen depends on the method and setting. Some results given as binding are weak or reduced against the parent protein; the word gives no strength. Where a sequence is shown, tags or fusion partners need not be part of it.

Protein sequences, listed by entry. Tags and fused reporters are not part of them. Lines headed by an entry give the natural chain unless they say otherwise; changes in a name come on top.
UniProt O14793: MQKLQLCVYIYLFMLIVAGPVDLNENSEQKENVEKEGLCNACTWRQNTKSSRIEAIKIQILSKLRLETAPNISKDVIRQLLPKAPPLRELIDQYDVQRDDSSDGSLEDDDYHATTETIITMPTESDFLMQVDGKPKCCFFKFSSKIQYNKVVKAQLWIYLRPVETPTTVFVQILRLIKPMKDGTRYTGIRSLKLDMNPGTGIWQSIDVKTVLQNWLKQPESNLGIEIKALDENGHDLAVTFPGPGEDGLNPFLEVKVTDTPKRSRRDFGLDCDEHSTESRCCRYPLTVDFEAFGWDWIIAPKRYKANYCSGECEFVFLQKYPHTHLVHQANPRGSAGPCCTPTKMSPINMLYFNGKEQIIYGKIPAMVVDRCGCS

Target: mature human GDF8 (growth and differentiation factor-8, myostatin) (human) (UniProt O14793)
Experiment: soluble ActRIIB as competitor: inhibition of the binding of biotinylated GDF8 (20 ng/ml) to plate-coated ActRIIB-Fc; axis OD 450 nm

binding: binds
B1: Recombinant ActRIIB-Fc chimera (R&D Systems, Cat. No. 339-RB/CF) (Fc fusion, not shown: a dimerising Fc or GST)
chain: SGRGEAETRECIYYNANWELERTNQSGLERCEGEQDKRLHCYASWRNSSGTIELVKKGCWLDDFNCYDRQECVATEENPQVYFCCCEGNFCNERFTHLPEAGGPEVTYEPPPTAPT
